Experimental data: article PMC3444471
These are yes or no findings as the source states them, for the method shown. Binding seen in cells or lysates may run through a third protein. Some results given as binding are weak or reduced against the parent protein; the word gives no strength. Sequences can lack the tags named with a protein.

The chains behind the UniProt entries cited, without tags or fusion partners.
UniProt O42998: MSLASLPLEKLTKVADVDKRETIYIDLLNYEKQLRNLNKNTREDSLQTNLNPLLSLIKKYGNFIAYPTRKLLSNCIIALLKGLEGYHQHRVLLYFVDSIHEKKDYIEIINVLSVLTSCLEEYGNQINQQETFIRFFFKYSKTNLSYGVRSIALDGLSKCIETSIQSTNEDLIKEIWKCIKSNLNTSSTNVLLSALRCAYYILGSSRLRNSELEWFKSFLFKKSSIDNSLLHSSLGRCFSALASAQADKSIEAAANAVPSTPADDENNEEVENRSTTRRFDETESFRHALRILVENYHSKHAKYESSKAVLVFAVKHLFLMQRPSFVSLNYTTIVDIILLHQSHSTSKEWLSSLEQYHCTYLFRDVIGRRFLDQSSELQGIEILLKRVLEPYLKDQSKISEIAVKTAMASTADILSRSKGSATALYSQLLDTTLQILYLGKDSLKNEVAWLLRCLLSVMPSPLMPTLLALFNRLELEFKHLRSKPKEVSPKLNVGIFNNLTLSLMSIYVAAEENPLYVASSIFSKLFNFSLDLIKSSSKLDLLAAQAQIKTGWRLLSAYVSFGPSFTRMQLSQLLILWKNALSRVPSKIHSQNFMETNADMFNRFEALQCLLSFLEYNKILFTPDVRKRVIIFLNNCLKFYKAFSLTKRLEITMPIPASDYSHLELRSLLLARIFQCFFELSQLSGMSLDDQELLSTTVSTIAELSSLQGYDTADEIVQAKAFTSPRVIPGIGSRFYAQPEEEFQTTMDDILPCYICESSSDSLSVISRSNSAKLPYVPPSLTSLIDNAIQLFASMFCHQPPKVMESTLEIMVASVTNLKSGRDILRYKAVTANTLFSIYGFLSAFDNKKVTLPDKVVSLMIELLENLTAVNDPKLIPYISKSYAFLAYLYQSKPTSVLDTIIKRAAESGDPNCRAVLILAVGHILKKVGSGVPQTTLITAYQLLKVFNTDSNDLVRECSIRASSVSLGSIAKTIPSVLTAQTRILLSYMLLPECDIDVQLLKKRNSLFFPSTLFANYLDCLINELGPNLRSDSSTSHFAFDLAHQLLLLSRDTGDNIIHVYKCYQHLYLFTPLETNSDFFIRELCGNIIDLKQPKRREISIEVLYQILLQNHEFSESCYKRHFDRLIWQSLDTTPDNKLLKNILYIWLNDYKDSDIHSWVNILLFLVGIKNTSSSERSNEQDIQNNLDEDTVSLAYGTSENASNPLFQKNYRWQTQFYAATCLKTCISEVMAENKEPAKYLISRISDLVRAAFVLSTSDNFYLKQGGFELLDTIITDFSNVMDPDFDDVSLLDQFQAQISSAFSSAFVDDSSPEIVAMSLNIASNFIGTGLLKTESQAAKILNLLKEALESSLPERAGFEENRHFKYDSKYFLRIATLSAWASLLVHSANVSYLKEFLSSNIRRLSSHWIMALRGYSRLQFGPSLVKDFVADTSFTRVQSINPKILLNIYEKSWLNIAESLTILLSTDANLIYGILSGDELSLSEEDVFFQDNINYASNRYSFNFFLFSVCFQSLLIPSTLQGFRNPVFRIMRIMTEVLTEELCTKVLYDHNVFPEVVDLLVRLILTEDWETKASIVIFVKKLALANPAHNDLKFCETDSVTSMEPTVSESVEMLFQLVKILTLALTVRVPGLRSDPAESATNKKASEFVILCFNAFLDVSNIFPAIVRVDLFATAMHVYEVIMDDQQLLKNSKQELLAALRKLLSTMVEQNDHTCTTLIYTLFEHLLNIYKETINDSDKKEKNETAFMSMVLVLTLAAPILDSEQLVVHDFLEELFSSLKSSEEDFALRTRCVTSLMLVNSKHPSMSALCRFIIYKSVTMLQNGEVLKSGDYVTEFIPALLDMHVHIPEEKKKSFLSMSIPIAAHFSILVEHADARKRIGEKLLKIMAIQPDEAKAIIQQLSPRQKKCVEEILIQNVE

B1: Apm1-GFP (protein, UniProt Q9HFE5 1-426)
chain: MASAIFVLNLKGKVIISRDYRADIPMSVVEKFLPLKSEVEEEQGFSTPCLTHEGINYIYIHHNDVYLLALSKMNSDAMEMLVFLRKMADVFIDYFKELQEESIRDNFVLVYELLDEIMDFGFPQTTETKILQEYITQTSNTVKKHAPPPIAMTNAISWRSEGIHYRKNEVFLDVIESVNLIAAADGTVIQSEILGKVRLKCYLSGMPELRLGLNDKVLFEAAGRTIKGNTVEMEDVKFHQCVRLARFENDRTISFIPPDGEFDLMSYRMSSNVRPLIWVECESIVHSGSRIEFMVKAKAQFKKRCIANNVQIIIPVPEDADSPRFQTSNGHVQYAPEQAAMVWNIKKFAGGKEFFMRAEMGLPSVKNEDIQVQKKRPVQLKFAIPYFTTSGIQVRYLKITEPKLNYHAMPWVRYVTQNGTEYSIRQ
B2: GFP-Apl2 (protein, UniProt O43079 1-683)
chain: MVPKLFQSSRFKAFKKSETSELQKGLVSQYAYERIDAVKRTIAAMTVGKDVSSLFPDVLKNLATRDITLKKLVYLYLINYAKTHPDLCILAVNTFVKDSEEYNPTLRALAIRTMGCIRVNKIIGYLADPLRKALKDEHPYVRKAAAVCVVKMYDLDREYCASNGFIEQLQALVSDPNPVVVANAVRSLAEIHDQDPEKGYFNVVYTMTDRLMVALSECNEWGRITILNSLARFRTSDIKEAEYVCERVVPQFQHANSGVVLSAVKVIMVHIPLFSSDFTDFLYKKMAPPLLTLLSTDSEIQYVALRNINLILQKRPSIFDVKTRVFFCKYNDPLYIKMEKLKIITMLACDENINETISELRAYVSEVELEFVKQTIKCLGDVALKVPSVINDCISIFLEIYELNISYMVQEVTVVMETVLRKYPQKIDLLLPYLSRVIEELGDPRARSSMAWILGEFSHVIPTSSKLLSEMISTMADEDLQIQLALLTAVVKLSLMNGKGNDEELVQKVLNYAINQSSNQDLRDRAFAYQRLLTPENVRKAQKIVCCEKPSVSYNNNLPEALLDALLCEITTLASVYHKLPESFIGQGKFGADAIQRRAVEELNIEEANVHEAIEKGANVENLLDLDFTDPGATSASDSPITSAQPQSGSNSAMDLFMAFEAPSTNNAEPVKARSATDDLLGL
B3: Apl4-GFP (protein, UniProt Q9UU81 1-836)
chain: MSSLKSFIKAVRASKTTAEEHTTILKESAQIRKNIRQGSNDMRMRRKNVAKLLYLFLLGEPTHFGQIECLKLLSSSRFMDKRLGYLAAMLLLDENQEVLTLLTNSLQNDLKSRDKFIVGLALSAFGNVAGPELARDLSNDIAELCSNHHNYISKKAVLCALRVIQKEPDLESLYIEKTDELLHSKSHGVLMAALAFAISACKINPSLISRFESQADDLIYRIRQLSTSTYSSEHNIGNISDPFLQVKILQFLSILGQNNPKIYDKMSDLLAQVCTNTDSSRNAGNAILYQAVRTILDLNSDSSLRVLGVNILAKFLGNRDNNTRYVALNMLKLVVNSEENAVQRHRSTILACLNDVDSSIQSRALELSTFLVNEANVRFMVRELLSFLDNVSDELRGSTAQYITEVTNAFAPNKRWHFDTLLRVFKSAGNFVSESTLSTFLRLIASAPELHEYAVVKLYAALKEDVSQEALTLSAFWVIGEYGQMLLSPTMNFDDDQTLPHSVSESDIVDIIEEVFNSVEASRYIIVQYGLFALTKLSARLGSSSTASRIDKIIYSYKRNKNTEVQQRSVEFHLILNDSKLSKTILEPTPAPLPPPRTTPYQNAEQKLKANKHVEKRVQESNELLDLIGLTTPSVAEPLETPVDEMTQSPQSSLSRAPSTSKKSHFEDILGLFASPAPSAQPVDSLASSFASLDFNASASQPSNNLSLLSSIPSTSKSYPPIVVFDKHDVTLTLVPSKEESTKTAVIEAKFKNKNPMTRVEKIHLEVAVPKSQKLKIQPLRTTSMEPGGETSQTLRVHGPSGSQVKLRLRISVVRQGGSNTLDQVDFGKLPSDLLQ
B4: GFP-Aps1 (protein, UniProt Q9P7N2 1-162)
chain: MSIKFFLLVSRQGKVRLAKWFNTLSIKERAKIIRDVSSLVITRKPKMCNFVEYKGEKIVYRRYASLFFVCGIEQDDNELIILEVIHKFVECLDKYFGNVCELDLIFNFEKAYYVMEELLLAGELQESSKTNVLSAVLAGDAESEADAQQDSLQKLVGSVKKR

Molecular target: GST-Sip1 (full-length Sip1 fused to glutathione-S-transferase) (Schizosaccharomyces pombe) (UniProt O42998)
Assay: pull-down; GST-Sip1 precipitated by glutathione beads after incubation with lysates of S. pombe cells expressing GFP-tagged AP-1 subunits or GFP alone; washed extensively, SDS-PAGE, immunoblot with anti-GFP or anti-GST; only the target purified

binding, binds:
B1, B2, B3, B4
